# Reference: the supplement of paper PMC12595434, “Development of retinoid nuclear receptor pathway antagonists through targeting aldehyde dehydrogenase 1A3” (iScience, 2025)
# By UniProt entry, the sequences of proteins in these tests, tags left out. Where a name states a change or a piece, a line headed by the entry shows the natural chain unless it says otherwise.
# UniProt Q9NRG4: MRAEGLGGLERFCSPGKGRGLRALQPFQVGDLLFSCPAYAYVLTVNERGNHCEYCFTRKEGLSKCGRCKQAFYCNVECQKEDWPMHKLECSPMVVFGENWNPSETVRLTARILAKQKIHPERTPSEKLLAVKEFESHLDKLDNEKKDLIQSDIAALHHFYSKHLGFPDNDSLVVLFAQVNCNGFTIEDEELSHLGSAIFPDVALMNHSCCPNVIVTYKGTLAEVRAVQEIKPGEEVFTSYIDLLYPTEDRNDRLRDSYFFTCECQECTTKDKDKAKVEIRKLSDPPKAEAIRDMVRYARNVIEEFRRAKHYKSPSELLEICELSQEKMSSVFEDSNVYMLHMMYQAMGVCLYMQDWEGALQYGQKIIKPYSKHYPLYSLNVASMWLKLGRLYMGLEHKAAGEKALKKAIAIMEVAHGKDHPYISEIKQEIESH
# UniProt Q9NPE3: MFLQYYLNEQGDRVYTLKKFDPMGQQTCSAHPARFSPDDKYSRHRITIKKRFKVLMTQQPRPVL
# UniProt Q9H977: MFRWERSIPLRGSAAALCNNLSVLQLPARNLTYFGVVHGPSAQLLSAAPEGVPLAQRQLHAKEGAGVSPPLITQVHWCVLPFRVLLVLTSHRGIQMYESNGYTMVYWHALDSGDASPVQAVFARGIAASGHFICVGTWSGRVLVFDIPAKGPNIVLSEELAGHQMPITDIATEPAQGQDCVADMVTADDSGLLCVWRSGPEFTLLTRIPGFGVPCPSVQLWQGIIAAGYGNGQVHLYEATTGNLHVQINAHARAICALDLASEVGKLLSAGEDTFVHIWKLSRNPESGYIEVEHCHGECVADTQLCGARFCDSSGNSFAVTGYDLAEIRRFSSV
# UniProt Q9NRL3: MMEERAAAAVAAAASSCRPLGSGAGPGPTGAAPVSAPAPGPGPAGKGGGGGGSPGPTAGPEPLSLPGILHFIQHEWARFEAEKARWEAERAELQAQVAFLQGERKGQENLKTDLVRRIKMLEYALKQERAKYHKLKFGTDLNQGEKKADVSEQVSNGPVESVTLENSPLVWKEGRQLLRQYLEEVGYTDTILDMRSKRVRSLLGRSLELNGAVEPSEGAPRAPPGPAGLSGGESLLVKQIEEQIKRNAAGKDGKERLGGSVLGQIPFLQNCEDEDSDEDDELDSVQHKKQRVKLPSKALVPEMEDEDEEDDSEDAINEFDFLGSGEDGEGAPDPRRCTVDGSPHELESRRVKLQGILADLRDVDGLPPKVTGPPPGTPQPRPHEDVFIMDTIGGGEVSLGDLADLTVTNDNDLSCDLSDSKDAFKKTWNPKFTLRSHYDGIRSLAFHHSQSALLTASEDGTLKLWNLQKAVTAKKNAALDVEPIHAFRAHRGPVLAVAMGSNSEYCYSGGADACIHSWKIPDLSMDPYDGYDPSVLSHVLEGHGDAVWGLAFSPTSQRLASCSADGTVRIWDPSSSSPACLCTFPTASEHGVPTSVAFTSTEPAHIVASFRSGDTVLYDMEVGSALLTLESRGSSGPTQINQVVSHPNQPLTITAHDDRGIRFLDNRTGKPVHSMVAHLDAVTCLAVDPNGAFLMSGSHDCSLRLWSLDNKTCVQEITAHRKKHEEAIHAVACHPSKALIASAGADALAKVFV
# UniProt Q9NRK6: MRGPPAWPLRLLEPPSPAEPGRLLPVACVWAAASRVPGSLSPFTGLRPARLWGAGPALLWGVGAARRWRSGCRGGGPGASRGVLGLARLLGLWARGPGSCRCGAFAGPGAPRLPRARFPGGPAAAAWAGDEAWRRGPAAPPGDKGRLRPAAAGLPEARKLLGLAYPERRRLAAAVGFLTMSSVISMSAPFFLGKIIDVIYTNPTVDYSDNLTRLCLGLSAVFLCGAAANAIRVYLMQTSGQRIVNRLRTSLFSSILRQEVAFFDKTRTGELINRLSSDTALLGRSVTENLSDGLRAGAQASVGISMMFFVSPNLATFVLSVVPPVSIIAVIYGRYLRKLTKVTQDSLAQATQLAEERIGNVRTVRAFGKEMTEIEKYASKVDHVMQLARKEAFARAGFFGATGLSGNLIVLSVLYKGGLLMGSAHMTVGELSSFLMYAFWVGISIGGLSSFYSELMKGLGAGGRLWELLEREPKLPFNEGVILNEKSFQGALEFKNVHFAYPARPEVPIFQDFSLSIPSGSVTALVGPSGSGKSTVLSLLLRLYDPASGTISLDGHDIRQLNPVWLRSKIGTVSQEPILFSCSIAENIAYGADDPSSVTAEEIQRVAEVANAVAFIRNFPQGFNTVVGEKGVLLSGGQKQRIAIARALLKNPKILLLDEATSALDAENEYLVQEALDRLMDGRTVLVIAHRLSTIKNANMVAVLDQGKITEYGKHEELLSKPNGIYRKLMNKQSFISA
# UniProt Q9HB20: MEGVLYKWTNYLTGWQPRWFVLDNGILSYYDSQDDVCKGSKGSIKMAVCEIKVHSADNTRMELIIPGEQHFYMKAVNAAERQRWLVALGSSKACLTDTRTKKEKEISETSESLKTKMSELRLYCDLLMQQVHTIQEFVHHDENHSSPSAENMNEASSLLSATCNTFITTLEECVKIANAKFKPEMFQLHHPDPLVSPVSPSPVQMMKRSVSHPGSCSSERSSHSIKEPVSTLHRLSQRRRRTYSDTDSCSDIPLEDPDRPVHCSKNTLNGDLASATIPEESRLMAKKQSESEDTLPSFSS
# UniProt Q9NQS3, whole entry, looked up: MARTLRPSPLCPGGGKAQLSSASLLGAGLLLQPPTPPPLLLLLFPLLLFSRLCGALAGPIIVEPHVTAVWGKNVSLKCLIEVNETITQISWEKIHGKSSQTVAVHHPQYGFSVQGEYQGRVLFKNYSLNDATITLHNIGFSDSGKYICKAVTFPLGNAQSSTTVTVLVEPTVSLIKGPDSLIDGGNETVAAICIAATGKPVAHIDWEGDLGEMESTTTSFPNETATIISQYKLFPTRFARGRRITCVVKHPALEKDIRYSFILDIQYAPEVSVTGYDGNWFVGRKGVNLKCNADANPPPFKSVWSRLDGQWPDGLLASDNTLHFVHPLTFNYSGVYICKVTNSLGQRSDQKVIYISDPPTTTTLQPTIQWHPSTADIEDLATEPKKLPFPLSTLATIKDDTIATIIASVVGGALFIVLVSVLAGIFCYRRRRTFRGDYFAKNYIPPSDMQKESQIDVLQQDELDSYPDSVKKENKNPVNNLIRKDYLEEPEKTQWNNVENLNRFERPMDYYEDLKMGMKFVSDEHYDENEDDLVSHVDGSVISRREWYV
# UniProt Q9NT99: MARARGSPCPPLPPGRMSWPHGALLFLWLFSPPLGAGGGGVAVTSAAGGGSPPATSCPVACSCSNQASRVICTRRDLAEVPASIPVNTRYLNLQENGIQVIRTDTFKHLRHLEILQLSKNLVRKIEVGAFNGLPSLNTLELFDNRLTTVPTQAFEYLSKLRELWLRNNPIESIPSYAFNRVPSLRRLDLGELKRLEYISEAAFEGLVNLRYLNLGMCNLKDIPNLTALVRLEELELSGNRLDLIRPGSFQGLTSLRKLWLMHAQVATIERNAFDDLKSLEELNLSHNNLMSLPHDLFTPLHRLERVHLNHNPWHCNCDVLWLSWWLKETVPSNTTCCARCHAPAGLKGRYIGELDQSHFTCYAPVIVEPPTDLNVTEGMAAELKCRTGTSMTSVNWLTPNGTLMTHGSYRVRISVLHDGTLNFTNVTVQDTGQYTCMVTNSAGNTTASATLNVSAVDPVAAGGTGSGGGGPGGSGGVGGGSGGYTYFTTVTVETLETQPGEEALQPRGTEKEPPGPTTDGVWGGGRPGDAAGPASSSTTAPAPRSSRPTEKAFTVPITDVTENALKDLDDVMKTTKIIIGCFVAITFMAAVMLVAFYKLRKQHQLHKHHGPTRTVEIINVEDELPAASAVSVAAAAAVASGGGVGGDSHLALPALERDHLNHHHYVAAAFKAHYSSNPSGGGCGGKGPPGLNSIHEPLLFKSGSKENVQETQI
# UniProt Q9NQS7, whole entry: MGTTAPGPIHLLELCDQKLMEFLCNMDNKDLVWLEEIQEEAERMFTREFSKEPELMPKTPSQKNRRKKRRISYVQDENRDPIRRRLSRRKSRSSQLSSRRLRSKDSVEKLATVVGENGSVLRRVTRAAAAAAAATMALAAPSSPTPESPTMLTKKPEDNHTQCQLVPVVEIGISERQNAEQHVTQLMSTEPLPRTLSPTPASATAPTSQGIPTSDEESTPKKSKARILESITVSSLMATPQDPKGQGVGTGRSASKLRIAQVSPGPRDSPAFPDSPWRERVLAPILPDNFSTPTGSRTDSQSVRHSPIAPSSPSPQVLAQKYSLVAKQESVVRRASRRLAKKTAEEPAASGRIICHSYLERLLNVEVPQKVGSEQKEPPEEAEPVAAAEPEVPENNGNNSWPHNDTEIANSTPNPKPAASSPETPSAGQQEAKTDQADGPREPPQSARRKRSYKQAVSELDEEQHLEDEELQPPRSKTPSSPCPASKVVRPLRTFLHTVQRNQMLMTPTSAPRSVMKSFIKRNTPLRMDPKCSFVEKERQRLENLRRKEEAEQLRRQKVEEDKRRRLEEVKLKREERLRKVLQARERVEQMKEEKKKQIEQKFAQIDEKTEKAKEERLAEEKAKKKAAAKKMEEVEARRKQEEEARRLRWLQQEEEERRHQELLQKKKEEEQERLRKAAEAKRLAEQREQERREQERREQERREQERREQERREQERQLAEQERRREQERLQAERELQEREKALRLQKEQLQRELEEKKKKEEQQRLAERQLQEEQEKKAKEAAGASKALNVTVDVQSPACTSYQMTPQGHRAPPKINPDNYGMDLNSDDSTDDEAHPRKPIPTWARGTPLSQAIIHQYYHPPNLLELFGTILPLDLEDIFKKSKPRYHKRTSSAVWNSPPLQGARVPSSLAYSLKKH
# UniProt Q9NP80: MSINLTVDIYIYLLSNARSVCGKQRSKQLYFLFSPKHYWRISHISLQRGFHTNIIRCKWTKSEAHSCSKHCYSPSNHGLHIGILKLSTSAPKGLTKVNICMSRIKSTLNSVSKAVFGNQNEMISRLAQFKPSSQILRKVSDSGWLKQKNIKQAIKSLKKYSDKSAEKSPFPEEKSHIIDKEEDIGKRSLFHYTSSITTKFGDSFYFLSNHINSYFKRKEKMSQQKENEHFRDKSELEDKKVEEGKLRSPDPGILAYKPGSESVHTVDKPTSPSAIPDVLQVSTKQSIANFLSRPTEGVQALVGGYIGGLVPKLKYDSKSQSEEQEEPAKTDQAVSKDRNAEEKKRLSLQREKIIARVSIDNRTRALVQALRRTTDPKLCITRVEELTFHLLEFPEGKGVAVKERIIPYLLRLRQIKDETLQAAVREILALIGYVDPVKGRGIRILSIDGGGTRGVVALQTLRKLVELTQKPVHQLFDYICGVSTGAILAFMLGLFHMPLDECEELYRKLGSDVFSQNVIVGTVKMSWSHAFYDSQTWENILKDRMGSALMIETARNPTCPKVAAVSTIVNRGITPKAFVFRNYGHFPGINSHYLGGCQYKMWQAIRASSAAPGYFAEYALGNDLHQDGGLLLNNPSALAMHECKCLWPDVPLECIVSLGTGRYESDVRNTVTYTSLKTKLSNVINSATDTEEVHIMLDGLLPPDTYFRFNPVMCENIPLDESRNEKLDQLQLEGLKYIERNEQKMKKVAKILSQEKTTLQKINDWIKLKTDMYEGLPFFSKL
# UniProt Q9NSC5: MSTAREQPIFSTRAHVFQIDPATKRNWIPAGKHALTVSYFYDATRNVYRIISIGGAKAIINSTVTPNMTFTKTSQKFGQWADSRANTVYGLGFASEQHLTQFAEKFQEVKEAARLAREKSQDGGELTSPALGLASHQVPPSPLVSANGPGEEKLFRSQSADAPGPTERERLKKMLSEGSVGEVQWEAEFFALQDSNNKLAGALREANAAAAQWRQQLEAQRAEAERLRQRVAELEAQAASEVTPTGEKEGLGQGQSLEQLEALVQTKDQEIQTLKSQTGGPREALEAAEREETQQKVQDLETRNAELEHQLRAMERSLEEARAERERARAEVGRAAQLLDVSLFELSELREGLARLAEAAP
# UniProt Q9NVG8: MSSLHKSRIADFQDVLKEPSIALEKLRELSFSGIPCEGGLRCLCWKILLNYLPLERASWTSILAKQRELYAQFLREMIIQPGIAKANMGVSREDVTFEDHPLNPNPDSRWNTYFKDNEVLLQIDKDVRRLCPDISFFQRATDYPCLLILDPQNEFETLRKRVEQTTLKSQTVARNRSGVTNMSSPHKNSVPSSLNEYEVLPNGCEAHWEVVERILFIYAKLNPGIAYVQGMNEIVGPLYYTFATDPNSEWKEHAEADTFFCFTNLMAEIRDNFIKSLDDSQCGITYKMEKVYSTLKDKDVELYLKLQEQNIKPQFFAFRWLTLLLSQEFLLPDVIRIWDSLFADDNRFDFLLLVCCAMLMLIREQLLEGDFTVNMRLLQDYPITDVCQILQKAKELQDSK
# UniProt Q9NQT4, whole entry: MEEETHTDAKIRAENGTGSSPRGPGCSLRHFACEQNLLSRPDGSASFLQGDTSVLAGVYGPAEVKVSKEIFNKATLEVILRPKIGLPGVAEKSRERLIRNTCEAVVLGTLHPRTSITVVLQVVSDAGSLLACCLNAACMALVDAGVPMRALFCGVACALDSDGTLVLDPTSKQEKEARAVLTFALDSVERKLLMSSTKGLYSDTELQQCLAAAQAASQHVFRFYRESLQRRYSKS
# Some of the results follow. The data scatter; read single values as rough.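 Many melting curves are irregular; where none melted, Tm was taken as 64 °C.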
# Compound: CCc1cnccc1C(=O)Nc1cc2c(cc1F)NC(=O)CC2
# Test: melting temperature shift (DMSO Tm minus MBE1-treated Tm) in cellular thermal proteome profiling; higher = less thermal stabilization by MBE1 (negative = stabilized by MBE1)
# Details: A375
target,measurement,setting,value
C17ORF75 (UniProt Q9HAS0),melting temperature shift,MBE1 concentration: 100 nM,-0.359 °C
same,melting temperature shift,MBE1 concentration: 1 uM,0.482 °C
CHRAC1 (UniProt Q9NRG0),melting temperature shift,MBE1 concentration: 100 nM,-0.202 °C
BRD7 (UniProt Q9NPI1),melting temperature shift,MBE1 concentration: 100 nM,-0.269 °C
same,melting temperature shift,MBE1 concentration: 1 uM,-0.237 °C
POLE3 (UniProt Q9NRF9),melting temperature shift,MBE1 concentration: 100 nM,0.519 °C
same,melting temperature shift,MBE1 concentration: 1 uM,0.788 °C
UniProt Q9HCK5,melting temperature shift,MBE1 concentration: 100 nM,-0.55 °C
same,melting temperature shift,MBE1 concentration: 1 uM,-3.25 °C
UniProt Q9NV79,melting temperature shift,MBE1 concentration: 100 nM,0.318 °C
UniProt Q9HCU8,melting temperature shift,MBE1 concentration: 100 nM,-1.14 °C
same,melting temperature shift,MBE1 concentration: 1 uM,0.51 °C
NEK6 (UniProt Q9HC98),melting temperature shift,MBE1 concentration: 100 nM,-0.0977 °C
same,melting temperature shift,MBE1 concentration: 1 uM,0.275 °C
UniProt Q9NUL5,melting temperature shift,MBE1 concentration: 100 nM,-6.5 °C
COPS7B (UniProt Q9H9Q2),melting temperature shift,MBE1 concentration: 100 nM,-0.644 °C
same,melting temperature shift,MBE1 concentration: 1 uM,0.523 °C
RAB18 (UniProt Q9NP72),melting temperature shift,MBE1 concentration: 100 nM,-2.69 °C
same,melting temperature shift,MBE1 concentration: 1 uM,0.863 °C
UniProt Q9H8W3,melting temperature shift,MBE1 concentration: 1 uM,-4.5 °C
DDX19A (UniProt Q9NUU7),melting temperature shift,MBE1 concentration: 100 nM,-0.409 °C
same,melting temperature shift,MBE1 concentration: 1 uM,-0.928 °C
UniProt Q9NPG3,melting temperature shift,MBE1 concentration: 1 uM,-0.961 °C
CHD8 (UniProt Q9HCK8),melting temperature shift,MBE1 concentration: 100 nM,-0.442 °C
same,melting temperature shift,MBE1 concentration: 1 uM,-0.256 °C
CNOT10 (UniProt Q9H9A5),melting temperature shift,MBE1 concentration: 100 nM,0.324 °C
same,melting temperature shift,MBE1 concentration: 1 uM,0.165 °C
RAD18 (UniProt Q9NS91),melting temperature shift,MBE1 concentration: 100 nM,-0.218 °C
same,melting temperature shift,MBE1 concentration: 1 uM,-0.493 °C
SLC25A19 (UniProt Q9HC21),melting temperature shift,MBE1 concentration: 1 uM,-2.05 °C
SMYD2 (UniProt Q9NRG4),melting temperature shift,MBE1 concentration: 1 uM,0.993 °C
NANS (UniProt Q9NR45),melting temperature shift,MBE1 concentration: 100 nM,-0.413 °C
same,melting temperature shift,MBE1 concentration: 1 uM,0.427 °C
UniProt Q9HBF4,melting temperature shift,MBE1 concentration: 100 nM,-0.137 °C
same,melting temperature shift,MBE1 concentration: 1 uM,-0.473 °C
NOP10 (UniProt Q9NPE3),melting temperature shift,MBE1 concentration: 100 nM,-1.7 °C
same,melting temperature shift,MBE1 concentration: 1 uM,-0.0855 °C
PPCS (UniProt Q9HAB8),melting temperature shift,MBE1 concentration: 100 nM,-0.503 °C
same,melting temperature shift,MBE1 concentration: 1 uM,-0.349 °C
UniProt Q9HB09,melting temperature shift,MBE1 concentration: 1 uM,0.586 °C
UniProt Q9HCH3,melting temperature shift,MBE1 concentration: 100 nM,0.385 °C
FAM49B (UniProt Q9NUQ9),melting temperature shift,MBE1 concentration: 100 nM,-0.423 °C
same,melting temperature shift,MBE1 concentration: 1 uM,-0.194 °C
UniProt Q9H977,melting temperature shift,MBE1 concentration: 100 nM,-0.911 °C
same,melting temperature shift,MBE1 concentration: 1 uM,-0.0977 °C
PLEKHA1 (UniProt Q9HB21),melting temperature shift,MBE1 concentration: 100 nM,-1.1 °C
same,melting temperature shift,MBE1 concentration: 1 uM,-0.641 °C
UniProt Q9HCH5,melting temperature shift,MBE1 concentration: 1 uM,0.476 °C
STRN4 (UniProt Q9NRL3),melting temperature shift,MBE1 concentration: 100 nM,0.739 °C
same,melting temperature shift,MBE1 concentration: 1 uM,0.0366 °C
ABCB10 (UniProt Q9NRK6),melting temperature shift,MBE1 concentration: 100 nM,-0.282 °C
same,melting temperature shift,MBE1 concentration: 1 uM,0.503 °C
UniProt Q9NQ90,melting temperature shift,MBE1 concentration: 100 nM,0.134 °C
same,melting temperature shift,MBE1 concentration: 1 uM,1.24 °C
UniProt Q9NU53,melting temperature shift,MBE1 concentration: 100 nM,-8.04 °C
UniProt Q9HB20,melting temperature shift,MBE1 concentration: 1 uM,-1.81 °C
METTL14 (UniProt Q9HCE5),melting temperature shift,MBE1 concentration: 100 nM,-1.02 °C
same,melting temperature shift,MBE1 concentration: 1 uM,0.0733 °C
NUDT15 (UniProt Q9NV35),melting temperature shift,MBE1 concentration: 100 nM,-0.67 °C
same,melting temperature shift,MBE1 concentration: 1 uM,-0.14 °C
NECTIN3 (UniProt Q9NQS3),melting temperature shift,MBE1 concentration: 1 uM,-2.98 °C
UniProt Q9NPH0,melting temperature shift,MBE1 concentration: 100 nM,-0.677 °C
same,melting temperature shift,MBE1 concentration: 1 uM,-0.0671 °C
TXLNG (UniProt Q9NUQ3),melting temperature shift,MBE1 concentration: 100 nM,-0.543 °C
same,melting temperature shift,MBE1 concentration: 1 uM,-0.174 °C
UniProt Q9HCG7,melting temperature shift,MBE1 concentration: 100 nM,-0.402 °C
same,melting temperature shift,MBE1 concentration: 1 uM,0.49 °C
OSGEP (UniProt Q9NPF4),melting temperature shift,MBE1 concentration: 100 nM,-0.653 °C
same,melting temperature shift,MBE1 concentration: 1 uM,-0.391 °C
ACSS2 (UniProt Q9NR19),melting temperature shift,MBE1 concentration: 100 nM,0.293 °C
same,melting temperature shift,MBE1 concentration: 1 uM,0.128 °C
ST7 (UniProt Q9NRC1),melting temperature shift,MBE1 concentration: 100 nM,-1.56 °C
same,melting temperature shift,MBE1 concentration: 1 uM,0.322 °C
PFDN4 (UniProt Q9NQP4),melting temperature shift,MBE1 concentration: 100 nM,-2.71 °C
same,melting temperature shift,MBE1 concentration: 1 uM,-0.638 °C
ANKZF1 (UniProt Q9H8Y5),melting temperature shift,MBE1 concentration: 100 nM,-0.296 °C
same,melting temperature shift,MBE1 concentration: 1 uM,-0.268 °C
UniProt Q9NVE5,melting temperature shift,MBE1 concentration: 100 nM,-0.551 °C
same,melting temperature shift,MBE1 concentration: 1 uM,-1.61 °C
GPBP1L1 (UniProt Q9HC44),melting temperature shift,MBE1 concentration: 100 nM,-2.54 °C
same,melting temperature shift,MBE1 concentration: 1 uM,0.788 °C
UniProt Q9NRD5,melting temperature shift,MBE1 concentration: 100 nM,1.2 °C
same,melting temperature shift,MBE1 concentration: 1 uM,0.366 °C
UniProt Q9NT99,melting temperature shift,MBE1 concentration: 100 nM,-0.577 °C
same,melting temperature shift,MBE1 concentration: 1 uM,0.672 °C
UniProt Q9NQS7,melting temperature shift,MBE1 concentration: 100 nM,0.648 °C
same,melting temperature shift,MBE1 concentration: 1 uM,-0.403 °C
UniProt Q9NUD5,melting temperature shift,MBE1 concentration: 100 nM,-0.311 °C
same,melting temperature shift,MBE1 concentration: 1 uM,-0.763 °C
NMRAL1 (UniProt Q9HBL8),melting temperature shift,MBE1 concentration: 100 nM,0.171 °C
same,melting temperature shift,MBE1 concentration: 1 uM,0.574 °C
BIRC6 (UniProt Q9NR09),melting temperature shift,MBE1 concentration: 100 nM,0.898 °C
same,melting temperature shift,MBE1 concentration: 1 uM,0.775 °C
UniProt Q9HCM3,melting temperature shift,MBE1 concentration: 100 nM,-0.926 °C
same,melting temperature shift,MBE1 concentration: 1 uM,-0.305 °C
SCPEP1 (UniProt Q9HB40),melting temperature shift,MBE1 concentration: 100 nM,-0.835 °C
same,melting temperature shift,MBE1 concentration: 1 uM,-1.32 °C
FBXO28 (UniProt Q9NVF7),melting temperature shift,MBE1 concentration: 100 nM,-0.757 °C
same,melting temperature shift,MBE1 concentration: 1 uM,-0.79 °C
UniProt Q9H9L7,melting temperature shift,MBE1 concentration: 100 nM,-0.769 °C
same,melting temperature shift,MBE1 concentration: 1 uM,-0.0917 °C
LYRM4 (UniProt Q9HD34),melting temperature shift,MBE1 concentration: 100 nM,0.349 °C
same,melting temperature shift,MBE1 concentration: 1 uM,-0.168 °C
IARS2 (UniProt Q9NSE4),melting temperature shift,MBE1 concentration: 100 nM,-0.649 °C
same,melting temperature shift,MBE1 concentration: 1 uM,0.769 °C
DDX28 (UniProt Q9NUL7),melting temperature shift,MBE1 concentration: 100 nM,-0.762 °C
same,melting temperature shift,MBE1 concentration: 1 uM,-0.564 °C
PARVA (UniProt Q9NVD7),melting temperature shift,MBE1 concentration: 100 nM,1.59 °C
same,melting temperature shift,MBE1 concentration: 1 uM,0.879 °C
MRGBP (UniProt Q9NV56),melting temperature shift,MBE1 concentration: 100 nM,-1.01 °C
same,melting temperature shift,MBE1 concentration: 1 uM,0.53 °C
PNPLA8 (UniProt Q9NP80),melting temperature shift,MBE1 concentration: 100 nM,0.376 °C
same,melting temperature shift,MBE1 concentration: 1 uM,-0.235 °C
RIC8A (UniProt Q9NPQ8),melting temperature shift,MBE1 concentration: 100 nM,0.103 °C
same,melting temperature shift,MBE1 concentration: 1 uM,0.103 °C
TANC2 (UniProt Q9HCD6),melting temperature shift,MBE1 concentration: 100 nM,-0.889 °C
same,melting temperature shift,MBE1 concentration: 1 uM,-0.428 °C
HOMER3 (UniProt Q9NSC5),melting temperature shift,MBE1 concentration: 100 nM,1.33 °C
same,melting temperature shift,MBE1 concentration: 1 uM,0.183 °C
TBC1D13 (UniProt Q9NVG8),melting temperature shift,MBE1 concentration: 100 nM,-0.624 °C
same,melting temperature shift,MBE1 concentration: 1 uM,0.362 °C
EXOSC5 (UniProt Q9NQT4),melting temperature shift,MBE1 concentration: 100 nM,-0.244 °C
same,melting temperature shift,MBE1 concentration: 1 uM,0.159 °C
TOMM22 (UniProt Q9NS69),melting temperature shift,MBE1 concentration: 100 nM,-2.67 °C
same,melting temperature shift,MBE1 concentration: 1 uM,-0.0183 °C
DCAF13 (UniProt Q9NV06),melting temperature shift,MBE1 concentration: 100 nM,-0.25 °C
same,melting temperature shift,MBE1 concentration: 1 uM,0.556 °C
UniProt Q9NRW1,melting temperature shift,MBE1 concentration: 100 nM,-0.888 °C
same,melting temperature shift,MBE1 concentration: 1 uM,-2.92 °C
UniProt Q9NV88,melting temperature shift,MBE1 concentration: 100 nM,0.121 °C
same,melting temperature shift,MBE1 concentration: 1 uM,0.216 °C
UniProt Q9NQA3,melting temperature shift,MBE1 concentration: 100 nM,-0.353 °C
same,melting temperature shift,MBE1 concentration: 1 uM,-0.485 °C
SPC25 (UniProt Q9HBM1),melting temperature shift,MBE1 concentration: 100 nM,0.861 °C
same,melting temperature shift,MBE1 concentration: 1 uM,-0.342 °C

# A portion from the list above, as a working copy:
target,measurement,setting,value
BIRC6 (UniProt Q9NR09),melting temperature shift,MBE1 concentration: 1 uM,0.775 °C
UniProt Q9HCM3,melting temperature shift,MBE1 concentration: 100 nM,-0.926 °C
same,melting temperature shift,MBE1 concentration: 1 uM,-0.305 °C
SCPEP1 (UniProt Q9HB40),melting temperature shift,MBE1 concentration: 100 nM,-0.835 °C
same,melting temperature shift,MBE1 concentration: 1 uM,-1.32 °C
FBXO28 (UniProt Q9NVF7),melting temperature shift,MBE1 concentration: 100 nM,-0.757 °C
same,melting temperature shift,MBE1 concentration: 1 uM,-0.79 °C
